Measured values: US20090054344A1
These are yes or no findings as the source states them, for the method shown. Some results given as binding are weak or reduced against the parent protein; the word gives no strength.

By UniProt entry, the sequences of proteins in these tests, tags left out. Where a name states a change or a piece, a line headed by the entry shows the natural chain unless it says otherwise. Residues count along the entry.
UniProt P08253, residues 110-660: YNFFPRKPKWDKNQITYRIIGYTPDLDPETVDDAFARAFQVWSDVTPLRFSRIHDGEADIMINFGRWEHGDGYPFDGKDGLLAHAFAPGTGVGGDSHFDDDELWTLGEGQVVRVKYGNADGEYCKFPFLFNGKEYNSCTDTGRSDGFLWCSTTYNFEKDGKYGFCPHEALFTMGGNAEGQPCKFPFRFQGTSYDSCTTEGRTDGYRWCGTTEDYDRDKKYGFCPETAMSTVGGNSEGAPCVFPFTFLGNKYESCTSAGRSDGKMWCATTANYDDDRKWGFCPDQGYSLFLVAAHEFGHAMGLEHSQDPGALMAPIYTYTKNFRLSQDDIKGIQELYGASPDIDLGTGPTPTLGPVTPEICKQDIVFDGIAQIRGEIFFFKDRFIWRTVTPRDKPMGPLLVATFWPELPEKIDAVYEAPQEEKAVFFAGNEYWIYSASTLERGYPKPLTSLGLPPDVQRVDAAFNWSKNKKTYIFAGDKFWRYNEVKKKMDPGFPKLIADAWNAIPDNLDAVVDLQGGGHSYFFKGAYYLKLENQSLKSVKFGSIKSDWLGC
UniProt P02462: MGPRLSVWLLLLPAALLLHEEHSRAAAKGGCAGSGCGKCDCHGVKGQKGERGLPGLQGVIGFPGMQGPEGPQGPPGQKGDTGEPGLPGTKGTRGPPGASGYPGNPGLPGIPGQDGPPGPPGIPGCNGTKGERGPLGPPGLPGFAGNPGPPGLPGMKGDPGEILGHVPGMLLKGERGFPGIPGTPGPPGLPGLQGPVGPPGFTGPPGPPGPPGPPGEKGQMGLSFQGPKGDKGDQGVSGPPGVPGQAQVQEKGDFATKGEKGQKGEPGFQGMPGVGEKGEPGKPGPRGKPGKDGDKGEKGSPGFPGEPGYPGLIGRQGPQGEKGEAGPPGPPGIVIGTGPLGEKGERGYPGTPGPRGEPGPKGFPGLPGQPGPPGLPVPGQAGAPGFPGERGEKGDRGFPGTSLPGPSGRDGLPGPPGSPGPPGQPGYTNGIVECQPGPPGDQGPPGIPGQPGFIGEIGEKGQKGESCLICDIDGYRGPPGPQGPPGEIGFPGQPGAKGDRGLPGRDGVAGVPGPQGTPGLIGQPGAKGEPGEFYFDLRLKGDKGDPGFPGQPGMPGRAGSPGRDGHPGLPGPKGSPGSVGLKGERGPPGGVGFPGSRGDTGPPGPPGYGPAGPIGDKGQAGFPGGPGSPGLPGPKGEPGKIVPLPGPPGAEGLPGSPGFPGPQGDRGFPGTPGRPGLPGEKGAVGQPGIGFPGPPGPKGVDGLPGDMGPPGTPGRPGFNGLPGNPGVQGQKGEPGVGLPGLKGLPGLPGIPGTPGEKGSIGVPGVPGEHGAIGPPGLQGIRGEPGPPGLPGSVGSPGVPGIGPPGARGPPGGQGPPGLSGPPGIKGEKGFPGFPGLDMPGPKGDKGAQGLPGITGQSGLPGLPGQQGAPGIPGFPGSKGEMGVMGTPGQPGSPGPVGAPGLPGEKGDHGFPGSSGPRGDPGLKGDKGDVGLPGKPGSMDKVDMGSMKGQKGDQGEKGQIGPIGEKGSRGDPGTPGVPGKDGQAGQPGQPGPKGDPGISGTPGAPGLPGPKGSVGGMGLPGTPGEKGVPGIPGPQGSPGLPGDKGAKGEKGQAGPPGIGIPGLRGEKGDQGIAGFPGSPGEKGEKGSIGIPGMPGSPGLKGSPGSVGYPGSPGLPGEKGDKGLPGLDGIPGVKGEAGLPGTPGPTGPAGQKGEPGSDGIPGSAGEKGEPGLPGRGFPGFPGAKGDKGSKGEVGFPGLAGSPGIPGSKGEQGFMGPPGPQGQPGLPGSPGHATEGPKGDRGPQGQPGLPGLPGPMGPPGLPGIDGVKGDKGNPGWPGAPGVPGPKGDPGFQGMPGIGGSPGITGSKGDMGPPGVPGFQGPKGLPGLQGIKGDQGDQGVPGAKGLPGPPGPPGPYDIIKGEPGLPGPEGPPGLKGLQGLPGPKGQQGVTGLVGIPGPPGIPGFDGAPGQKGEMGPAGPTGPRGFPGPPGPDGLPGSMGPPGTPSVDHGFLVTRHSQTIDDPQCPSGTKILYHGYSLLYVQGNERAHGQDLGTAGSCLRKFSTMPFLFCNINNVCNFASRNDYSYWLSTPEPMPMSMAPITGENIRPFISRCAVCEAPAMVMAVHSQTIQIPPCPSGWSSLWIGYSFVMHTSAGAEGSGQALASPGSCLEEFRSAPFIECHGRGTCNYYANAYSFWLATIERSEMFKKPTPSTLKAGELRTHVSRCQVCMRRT

Molecular target: MMP-2 (UniProt P08253)
Experiment: inferred from inhibition of Matrigel degradation by MMP-2

human Arresten (way of production not stated for the assay) (from UniProt P02462 1441-1669) (ligand)
binding: binds
